PubChem BioAssay AID1259415 (National Center for Advancing Translational Sciences (NCATS), 2018)
Hit rate of the full screen: of about 410,000 compounds, about 18,000 (4.4%) were called active. The inconclusive results got no clear call from the source; some entries with a clear call stand among them for comparison. Rule as the data show it: active = activity change below about -60%; inconclusive = no clear call, values can overlap the other calls; inactive = above about -39%.

test: qHTS Assay for inhibitors of the human cytomegalovirus (HCMV); settings: HFF cells, HCMV-luciferase reporter, 72 h; at 57.5 µM; active compounds read low
In short: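 Inhibition of viral replication was scored as loss of reporter luminescence in HFFs infected with HCMV-luciferase (MOI 1 PFU/cell) for 72 h; compounds tested at 2 doses, normalized to buffer and Salinomycin controls.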
% is scaled to controls: 0 for no effect and ±100 for the full control effect.

| SMILES | activity change, negative = inhibition |
| --- | --- |
| CC(NS(=O)(=O)c1cccc(C(=O)NCc2ccncc2)c1)c1ccccc1 (configuration not stated) | active: -99.6% |
| Cc1cc(=O)n2[nH]c(C)c(-c3ccc(Cl)cc3)c2n1 | inconclusive: -54.7% |
| O=C(NCCCn1ccnc1)c1ccc(Br)s1 | inactive: -36.4% |
| COC(CNS(=O)(=O)c1ccc(S(=O)(=O)N2CCCC2)cc1)OC | inactive: -13.9% |
| COc1ccc(N(C(=O)c2ccccc2C)S(=O)(=O)c2cccs2)cc1 | active: -76.9% |
| O=S(=O)(N1CCCCC1)N1CCN(CC(O)COc2ccc3cc(Br)ccc3c2)CC1 (configuration not stated) | inconclusive: -56.8% |
| COc1cccc2c(=O)n(CC(=O)Nc3ccccc3F)ccc12 | inactive: 29% |
| C/C(=N/NC(=O)c1cc2ccccc2cc1O)c1ccco1 | active: -72.6% |
| O=C(NC1CCN(Cc2ccc(Cl)c(Cl)c2)CC1)c1ccccc1 | inconclusive: -43.1% |
| Cc1ccc2c(c1)N(CCC(=O)NC(C)C)C(=O)CO2 | active: -75.8% |
| COC(CNC(=O)c1ccc2c(c1)nc(C)n2-c1cccc(C)c1)OC | inconclusive: -55.3% |
| O=C(CSc1nnc(-c2cccs2)o1)N1CCOCC1 | inconclusive: -40.6% |
| N#CCc1nc2c3c4c(sc3ncn2n1)CCCC4 | inconclusive: -46% |
| CC1CCN(S(=O)(=O)c2ccc3nc(NCc4ccccc4)ccc3c2)CC1 | inactive: -31.5% |
| CC(=O)c1cccc(NC(=S)N2CCN(CCN3C(=O)c4cccc5cccc(c45)C3=O)CC2)c1 | active: -79.5% |
| Cc1cccc(C)c1NC(=O)c1ccc([N+](=O)[O-])s1 | inconclusive: -58.9% |
| O=C(NC(c1ccccc1)c1ccccc1)c1cccc(S(=O)(=O)NCc2ccccc2)c1 | inconclusive: -41.4% |
| O=C(/C=C/c1ccco1)Nc1nc(-c2ccccn2)cs1 | inactive: 45% |
| Cc1ccc(NC(=O)CSc2ccc(-c3cccnc3)nn2)cc1 | inactive: -6.07% |

Fetched by structure from the entries so far, five records:

| SMILES | activity change, negative = inhibition |
| --- | --- |
| COC(CNC(=O)c1ccc2c(c1)nc(C)n2-c1cccc(C)c1)OC | inconclusive: -55.3% |
| O=S(=O)(N1CCCCC1)N1CCN(CC(O)COc2ccc3cc(Br)ccc3c2)CC1 (configuration not stated) | inconclusive: -56.8% |
| O=C(NC(c1ccccc1)c1ccccc1)c1cccc(S(=O)(=O)NCc2ccccc2)c1 | inconclusive: -41.4% |
| Cc1cccc(C)c1NC(=O)c1ccc([N+](=O)[O-])s1 | inconclusive: -58.9% |
| CC1CCN(S(=O)(=O)c2ccc3nc(NCc4ccccc4)ccc3c2)CC1 | inactive: -31.5% |

Remaining list, next part:

| SMILES | activity change, negative = inhibition |
| --- | --- |
| Cc1cc(Br)ccc1NC(=O)CN(C)C(=O)C1CCN(C(=O)c2ccc(Cl)cc2)CC1 | inconclusive: -41.8% |
| O=C(CCSCc1cnn(-c2ccccc2)c1-n1cccc1)NCc1ccccc1Cl | inactive: -30.1% |
| COC(=O)C1=C(C)N(C)C(=NCc2ccccc2)NC1c1ccccc1 (configuration not stated) | inconclusive: -45.8% |
| CSc1sc(C(=O)NN)c2c1C1(CCC2)SCCS1 | inconclusive: -45.8% |
| COc1c(Cl)cc(Cl)cc1/C=C/C(=O)c1ccc(NC(=O)c2cccs2)cc1 | active: -99% |
| COc1ccc(Br)cc1CN1CCN(C(=O)c2ccc(F)cc2)CC1 | inactive: -19.1% |
| COc1ccc(S(=O)(=O)N2CCC(C(=O)NCc3cccnc3)CC2)cc1Cl | inconclusive: -42.7% |
| CCc1ccc2oc(-c3ccc(NC(=O)c4cc5ccccc5o4)cc3)nc2c1 | inactive: 37.7% |
| CC[N+](CC)(CC(=O)Nc1c(C)cccc1C)Cc1ccccc1 | inconclusive: -43% |
| O=C1NC(=Nc2ccc(O)cc2)S/C1=C\C=C\c1ccco1 | inconclusive: -57.5% |
| COc1cccc(C2/C(=C(/O)c3ccc(C)cc3)C(=O)C(=O)N2Cc2ccco2)c1 (configuration not stated) | inconclusive: -45% |
| CCOC(=O)CC(=O)CSc1nc2c(sc(=S)n2-c2ccc(OCC)cc2)c(=O)[nH]1 | inconclusive: -46.3% |
| COc1ccc(CCNS(=O)(=O)c2ccc(Cl)s2)cc1OC | inconclusive: -46% |
| O=C(O)C1CC(=O)N(Cc2ccc(F)cc2)C1 (configuration not stated) | inconclusive: -41.9% |
| CC1CN(N=Cc2ccc([N+](=O)[O-])o2)C(=N)O1 (configuration not stated) | inconclusive: -42.8% |
| CC(=O)Oc1ccccc1C(=O)Nc1ccccc1 | inactive: -16.6% |
| Cc1cc(/C=N\NC(=O)COc2cccc3cccnc23)c(C)n1-c1ccc(Br)cc1 | inconclusive: -45% |
| CCNC(=O)C1CCCN(C(=O)c2cc(F)cc(F)c2)CC1 (configuration not stated) | active: -92.7% |
| O=C(O)c1cc(-c2ccc3c(c2)OCO3)nc2ccc(Br)cc12 | inconclusive: -41.8% |

| SMILES | activity change, negative = inhibition |
| --- | --- |
| Cc1oncc1-c1csc(-c2ccccc2Cl)n1 | inconclusive: -41.2% |
| O=c1cc(CSc2n[nH]c(-c3ccncc3)n2)nc2sccn12 | inconclusive: -51% |
| COc1ccc(C)cc1NC(=O)COCc1cc(-c2ccc(F)cc2)on1 | inactive: 8.7% |
| COc1ccc(N2CCN(C(=O)CNC(=O)c3cn(-c4ccccc4OC)c(=O)c4ccccc34)CC2)cc1 | inconclusive: -54.5% |
| CN(C)CCNC(=O)c1cccc(-c2cc(NC=O)c3ncc(-c4cccc(C(F)(F)F)c4)n3c2)c1 | active: -61.5% |
| CC(C)Sc1oc(-c2ccco2)nc1S(=O)(=O)c1ccc(F)cc1 | inconclusive: -46.7% |
| Cc1cc(-c2n[nH]c(=S)n2-c2ccc(C)c(C)c2)no1 | inconclusive: -49.2% |
| CCOC(=O)C1=C[C@@H](C(C)C)N(S(=O)(=O)c2ccc(C)cc2)[C@H]1c1ccc(C(F)(F)F)cc1 | inconclusive: -58.3% |
| c1ccc(C2=NC(c3ccccc3)CC2)cc1 (configuration not stated) | inactive: 0.747% |
| CCN(CC)S(=O)(=O)c1ccc2c(c1)nc(CCC(=O)Nc1ccccc1Cc1ccccc1)n2CC | inconclusive: -57.4% |
| Cc1cccc(-c2noc(Cc3ccc(Cl)cc3)n2)c1 | inactive: 34.5% |
| CCOc1ccc(-c2nnn(CC(=O)c3cc(OC)ccc3OC)n2)cc1 | inconclusive: -48.3% |
| COc1ccc(NC(=O)NS(=O)(=O)c2ccc(C)cc2)cn1 | inconclusive: -47.5% |
| Cc1ccc(C(=O)COC(=O)C2CC3CCCC(C2)C3=O)cc1[N+](=O)[O-] (configuration not stated) | inactive: -23.7% |
| COC(=O)c1c(C)[nH]c(C(=O)/C=C/c2ccc(C)cc2)c1C | active: -90.4% |
| COc1cnc(-c2ccccn2)nc1Oc1c(C)cccc1C | inconclusive: -50.3% |
| CC(C)c1cc(C(=O)N2CCCC(CCC(=O)NCc3ccccc3F)C2)n(C)n1 (configuration not stated) | inconclusive: -57.2% |
| COc1ccc(-n2nc(C(=O)NCC(=O)N3CCN(C)CC3)c3ccccc3c2=O)cc1 | inactive: 22% |
| Cc1cc(C)c(N(C(=O)c2csnn2)C(C(=O)NC(C)(C)C)c2ccncc2)c(C)c1 (configuration not stated) | inconclusive: -46.7% |
